{"source": "patent US10792332B2", "about": "“Anti-infective properties of antifreeze protein” (priority 2013, dated 2020)", "key": {"S. aureus [1]": {"test_system": "S. aureus", "assay": "Binding competition of peptides with IAFGP-GST on bacteria", "set-up": "species or system Staphylococcus aureus", "settings": "bacteria pre-incubated with 1 mg/ml peptide, then IAFGP-GST"}, "S. aureus [2]": {"test_system": "S. aureus", "assay": "Static biofilm assay (safranin stain)", "format": "cell-based, Staphylococcus aureus", "settings": "glucose-supplemented medium; prototypic strain SA113", "description": "Biofilm assays were performed as described^38. Briefly, planktonic overnight cultures of S. aureus were diluted in glucose-supplemented tryptic soy broth or brain-heart-infusion broth (1% glucose; TSB/G or BHI/G) to OD600=0.015 and distributed into 96 well plates (Corning, NC). After an 18 h incubation at 37° C. bacterial growth in each well was confirmed by the measurement of OD600 using a spectrophotometer (BioTek, VT). The supernatant was discarded and the wells were washed with water twice. Bacteria associated with the well surface were dried and stained with safranin. The dye was then dissolved in 33% acetid acid and quantified at OD415 nm using a spectrophotometer (BioTek, VT). Bacterial attachment to catheter materials pre-incubated with peptides was investigated. Vialon™ catheters (BD Biosciences, NJ) were incubated for 18 h in 0.1 mg/ml peptides dissolved in PBS, washed with PBS and incubated in bacterial suspensions for 24 h. Following removal of non-adherent bacteria with repeated washing, adherent bacteria and biofilms were dissociated using sonication in PBS. Bacterial titers were quantified by plating serial dilutions on agar plates and were calculated per as CFU per catheter."}, "[3]": {"test_system": "exopolysaccharide poly-N-acetylglucosamine (PNAG) of S. aureus", "assay": "Exopolysaccharide (PNAG) detection by immunoblot in vitro", "format": "cell-based, Staphylococcus aureus", "settings": "static culture"}, "S. aureus SA113": {"test_system": "S. aureus SA113", "assay": "Bacterial attachment to pre-incubated intravenous catheters in vitro", "format": "cell-based, Staphylococcus aureus", "description": "(§1) FIG. 5A depicts bacterial attachment to intravenous catheters that had been incubated in PBS, GST, GST-IAFGP, P2 and P21c before transferring into S. aureus SA113 suspensions. Bacterial attachment was quantified after sonication by plating serial dilutions. Data were pooled from 3 independent experiments (One-Way-ANOVA; *: p<0.05). FIG. 5B presents bacterial attachment to intravenous catheters that had been incubated in PBS, P1 or sP1 and implanted subcutaneously on the dorsal flanks of C57Bl/6 mice. 72 hrs after catheter inoculation with 5×10^5 CFU S. aureus SA113 the catheters were removed and the attached bacteria were quantified by plating serial dilutions. CFU data were pooled from 3 independent experiments (One-Way-ANOVA with Tukey's post-test; **: p<0.01). […] S. aureus are indicated by black triangles, biofilm matrix are indicated by empty triangles.\nBiofilm assays were performed as described^38. Briefly, planktonic overnight cultures of S. aureus were diluted in glucose-supplemented tryptic soy broth or brain-heart-infusion broth (1% glucose; TSB/G or BHI/G) to OD600=0.015 and distributed into 96 well plates (Corning, NC). […] The dye was then dissolved in 33% acetid acid and quantified at OD415 nm using a spectrophotometer (BioTek, VT). […] Bacterial titers were quantified by plating serial dilutions on agar plates and were calculated per as CFU per catheter."}, "[4]": {"assay": "Murine subcutaneous catheter implant model", "format": "in vivo, C57Bl/6 mice", "description": "as §1\nSeven days after catheter inoculation with S. aureus SA113, the catheters were removed, and the attached bacteria were quantified by plating serial dilutions.\nCecal ligation and puncture surgery was performed as described^26,41 Mice were anesthesized using isoflurane inhalation and the cecum was exteriorized through a peritoneal midline incision. Seventy-five percent of the cecum was ligated and punctured through and through with a 21G hypodermic needle. A small amount of fecal material was squeezed out and the cecum was reinserted into the peritoneal cavity. After closing the abdomen in two layers mice received 1 ml saline subcutaneously. Buprenorphine was injected every 12 h for analgesia. Sham surgeries including cecal exteriorization but without ligation and puncture were performed as control. […] Body surface temperature was measured dorsally using an infrared thermometer. A retro-orbital blood sample was taken daily and the cytokine levels of TNF-α, IL-6, IL12b and MCP-1 were measured using enzyme-linked immunosorbent assay (ELISA) kits (eBiosciences, San Diego, Calif.). Murine catheter implant surgery was performed as described^38. Mice were anesthesized using isoflurane inhalation and a dorsal area was shaved. Following surface disinfection, a small incision was made on each mouse flank. Using a blunt probe a subcutaneous pocket was formed and 2 cm catheter material (Vialon™, DB Biosciences, NJ) was inserted into each incision. Incisions were closed using suture and approximately 5×10^6 CFU of exponentially growing S. aureaus SA113 were injected through the skin into the lumen of the catheters. Three days post implant the devices were removed, rinsed once and then sonicated in PBS. The number of attached bacteria was determined by plating serial dilutions on agar plates."}}, "note": "Entries after “also recorded” stand apart in the source; their conditions may differ. Part of at least one peptide drawing is inferred or uncertain, most often the ends. Ends that are not written are not given here.", "data": [{"sequence": "PARKARAATAATAATAATAATAAT [P1]", "values": [{"measurement": "competition with IAFGP for binding to bacteria", "setting": "S. aureus [1]", "value": "competitively inhibited IAFGP binding; also recorded: prevents IAFGP binding to bacteria; also recorded: effectively competed with IAFGP"}, {"measurement": "biofilm formation in static S. aureus cultures", "setting": "S. aureus [2]", "value": "prevents; also recorded: abrogated"}, {"measurement": "exopolysaccharide PNAG amount/production in S. aureus", "setting": "[3]", "value": "prevents; also recorded: abrogated"}, {"measurement": "bacterial attachment / biofilm formation on intravenous catheters in vitro", "setting": "S. aureus SA113", "value": "altered bacterial attachment; also recorded: reduced biofilm formation"}, {"measurement": "lowering of catheter-associated bacteria in comparison to untreated controls", "setting": "S. aureus SA113; catheters incubated in protein or peptide solution, then S. aureus suspension", "value": 40, "unit": "fold"}, {"measurement": "scanning electron microscopy of explanted catheters: PNAG in S. aureus biofilms", "setting": "[4]; 72 h post inoculation", "value": "PNAG abrogation"}, {"measurement": "coated catheters having no attached bacteria", "setting": "[4]; after 7 days", "value": "4 of the 15"}, {"measurement": "cases in which bacteria are abrogated", "setting": "[4]; after 7 days, no additional antimicrobial treatment", "value": "approximately 30%"}, {"measurement": "coated catheters with 1 detectable colony forming unit", "setting": "[4]; after 7 days, of the 15 catheters", "value": 1}, {"measurement": "reduction in the number of attached bacteria in comparison to mock-treated catheters", "setting": "[4]; coated catheters, subcutaneous in mice, 72 h after inoculation", "value": "more than 40 fold"}, {"measurement": "reduction in the number of attached bacteria in comparison to PBS-treated catheters", "setting": "[4]; coated catheters, subcutaneous in mice, after 7 days", "value": 600, "unit": "fold"}, {"measurement": "reduction of S. aureus biofilm formation on catheter in vivo", "setting": "[4]; surgical mouse model of catheter implantation", "value": 95, "unit": "%"}]}]}
